In PubChem BioAssay AID445 (National Center for Advancing Translational Sciences (NCATS), 2006):
This is one part of the list. These are further read-outs of the screen, such as a control signal, another cell line or another target. No call is given for them. Most of these compounds were active or inconclusive in the main read-out, so they are no random draw. Words in brackets tell the shape of the fitted curve; partial curves, single points and poor fits give uncertain potencies.

Experiment: IkB Signaling
Settings: ABC-DLBCL IkBa-CBG/CBR dual luciferase ratio (green luciferase fused to IkBa over red control in OCI-Ly3 lymphoma cells), 4 h; measured here: control luc red channel unless noted
How it was run: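 In this assay, an IκBα–CBG68 fusion accumulates when IKK-driven degradation is blocked; native CBR normalizes for cell number. OCI-Ly3 cells were treated 4 h with compound and doxycycline, then green and red light read after Chroma-Glo addition.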

| Structure (SMILES) | AC50 |
| --- | --- |
| CCOc1cccc2sc(N3CCN(C(=O)C(C)(C)C)CC3)nc12 | 6.31 µM [rising, partial curve] |
| Cc1ccc(-c2nnc(SCC(=O)N3CCCc4ccccc43)o2)cc1 | 39.8 µM [falling, single point] |
| CCn1cc(C(=O)NCc2ccc(Cl)cc2)c(=O)c2cc(S(=O)(=O)N3CCOCC3)ccc21 | 3.16 µM [falling, full curve, poor fit] |
| COc1cc(NC(=O)c2ccc3c(Cl)c4c(nc3c2)CCC4)cc(OC)c1OC | 2 µM [falling, full curve] |
| Cc1ccc(C(=O)Nc2ccc(S(=O)(=O)N3CCc4ccccc43)cc2)o1 | 7.94 µM [falling, partial curve] |
| O=C(COc1ccc([N+](=O)[O-])cc1)N1CCC(c2nc3ccccc3s2)CC1 | 10 µM [falling, partial curve] |
| CCc1ccc(CNC(=O)C2CCN(c3nnc(C)c4c(C)n(-c5ccc(C)cc5)nc34)CC2)cc1 | 2 µM [falling, full curve] |
| CCOc1ccc(N(C(C)C(=O)NCCSc2ccc(Cl)cc2)S(C)(=O)=O)cc1 (stereo not drawn) | 31.6 µM [falling, single point] |
| Cc1cc(NC(=O)c2cc(-c3ccc(Br)cc3)on2)nn1Cc1ccc(Cl)cc1 | 5.01 µM [rising, single point] |
| COc1cc(OC)cc(C(=O)Nc2ccc(-c3nc4ccccc4s3)c(C)c2)c1 | 3.98 µM [rising, partial curve] |
| Cc1ccc(N2C(=O)CS(=O)(=O)C23C(=O)N(Cc2ccccc2C)c2ccccc23)cc1Cl (stereo not drawn) | 3.98 µM [falling, partial curve, poor fit] |
| O=C1C(C=Nc2ccccc2O)=C(O)c2ccccc21 | 5.01 µM [falling, partial curve] |
| CCCc1ccc(Oc2cn[nH]c2-c2ccc(O)c(C)c2O)cc1 | 15.8 µM [falling, partial curve] |
| Cc1sc2nc(CN(Cc3cccs3)C(=O)C3CC3)[nH]c(=O)c2c1C | 31.6 µM [falling, single point] |
| Cc1nc2ccn(Cc3ccco3)c(=O)c2cc1C(=O)Nc1ccc(F)cc1 | 12.6 µM [falling, partial curve] |
| COc1ccc(NC(=O)Cn2nc(-c3ccccc3)c3cnc4ccc(C)cc4c32)cc1 | 25.1 µM [rising, partial curve] |
| Cc1ccc(OCC(=O)Nc2ccc3c(c2)sc(=O)n3C)cc1 | 25.1 µM [falling, single point] |
| COc1ccc(-n2c(=O)[nH]c3cc(C(=O)NCCc4ccc(Cl)cc4)ccc3c2=O)cc1OC | 0.2 µM [falling, partial curve, poor fit] |
| CNC(=O)[C@H]1O[C@H](n2cnc3c(NCc4cccc(I)c4)nc(Cl)nc32)[C@@H](O)[C@@H]1O | 39.8 µM [falling, single point] |
| COc1ccc(NC(=O)C(NC(=O)C2CCC(C)CC2)C(C)C)cc1 (stereo not drawn) | 0.00631 µM [falling, full curve, poor fit] |
| CCCNC(=O)c1ccc2c(c1)nc(C)n2-c1cccc(C)c1 | 0.0316 µM [rising, full curve, poor fit] |

Nothing new here: an excerpt of the list.

| Structure (SMILES) | AC50 |
| --- | --- |
| COc1cc(NC(=O)c2ccc3c(Cl)c4c(nc3c2)CCC4)cc(OC)c1OC | 2 µM [falling, full curve] |
| Cc1ccc(C(=O)Nc2ccc(S(=O)(=O)N3CCc4ccccc43)cc2)o1 | 7.94 µM [falling, partial curve] |
| O=C(COc1ccc([N+](=O)[O-])cc1)N1CCC(c2nc3ccccc3s2)CC1 | 10 µM [falling, partial curve] |
| CCc1ccc(CNC(=O)C2CCN(c3nnc(C)c4c(C)n(-c5ccc(C)cc5)nc34)CC2)cc1 | 2 µM [falling, full curve] |
| CCOc1ccc(N(C(C)C(=O)NCCSc2ccc(Cl)cc2)S(C)(=O)=O)cc1 (stereo not drawn) | 31.6 µM [falling, single point] |
| Cc1cc(NC(=O)c2cc(-c3ccc(Br)cc3)on2)nn1Cc1ccc(Cl)cc1 | 5.01 µM [rising, single point] |
| COc1cc(OC)cc(C(=O)Nc2ccc(-c3nc4ccccc4s3)c(C)c2)c1 | 3.98 µM [rising, partial curve] |
| Cc1ccc(N2C(=O)CS(=O)(=O)C23C(=O)N(Cc2ccccc2C)c2ccccc23)cc1Cl (stereo not drawn) | 3.98 µM [falling, partial curve, poor fit] |
| O=C1C(C=Nc2ccccc2O)=C(O)c2ccccc21 | 5.01 µM [falling, partial curve] |
| CCCc1ccc(Oc2cn[nH]c2-c2ccc(O)c(C)c2O)cc1 | 15.8 µM [falling, partial curve] |
| Cc1sc2nc(CN(Cc3cccs3)C(=O)C3CC3)[nH]c(=O)c2c1C | 31.6 µM [falling, single point] |
| Cc1nc2ccn(Cc3ccco3)c(=O)c2cc1C(=O)Nc1ccc(F)cc1 | 12.6 µM [falling, partial curve] |

The list goes on.

| Structure (SMILES) | AC50 |
| --- | --- |
| Cc1nn(C)c2c1c(C(F)(F)F)cc(=O)n2C(C)C(=O)NCCC(C)C (stereo not drawn) | 12.6 µM [falling, partial curve] |
| COc1ccccc1NC(=O)CNC(=O)c1ccccc1 | 2.51 µM [falling, full curve] |
| Cc1ccc(NC(=O)c2nnn(Cc3cccc(C(F)(F)F)c3)c2N)c(C)c1 | 1.26 µM [falling, full curve, poor fit] |
| COc1ccc(CNC(=O)CCc2c(C)c3ccc(OC)c(C)c3oc2=O)cc1OC | 2.51 µM [rising, partial curve] |
| COC(=O)c1ccc(-n2nnc(-c3nc(-c4ccccc4Cl)no3)c2C)cc1 | 20 µM [rising, partial curve] |
| Cc1ccnc(NC(=O)CCCOc2cc(=O)n(C)c3ccccc23)c1 | 2 µM [falling, full curve] |
| COc1cc(NC(=O)CSc2nc(-c3ccc(C(C)C)cc3)no2)cc(OC)c1 | 1 µM [falling, full curve] |
| Cc1occc1-c1nnc(SCC(=O)N2CCc3ccccc32)o1 | 20 µM [rising, partial curve] [measured here: IkB-luc green channel] |
| CCN1CCN(Cc2c(O)ccc3c(=O)c(Oc4ccccc4C(C)C)c(C(F)(F)F)oc23)CC1 | 12.6 µM [falling, partial curve] |
| COc1ccc(-c2nc(C#N)c(NC(C)c3ccccc3)o2)cc1OC (stereo not drawn) | 25.1 µM [falling, partial curve] |
| Cc1ccc(CNC(=O)c2cc3ccc4cccnc4c3[nH]2)cc1 | 10 µM [falling, partial curve] |
| COCCCn1c(CCC(=O)O)ccc1-c1ccc(F)cc1 | 25.1 µM [falling, partial curve] |
| COc1ccc(C2=Nc3ccc(OC(F)(F)F)cc3NC(c3cccnc3)=N2)cc1 | 39.8 µM [falling, single point] |
| COc1ccc(CNC(=O)C2CCN(S(=O)(=O)c3ccc4c(c3)CCCN4C(C)=O)CC2)cc1 | 39.8 µM [falling, single point] |
| CCc1ccccc1NC(=O)c1sc(-n2nc(C)c(Cc3ccccc3)c2C)nc1C | 0.0501 µM [falling, full curve, poor fit] |
| COCc1cc(C)nc2sc3c(=O)n(-c4ccccc4C(F)(F)F)nnc3c12 | 3.16 µM [rising, single point] |
| O=C(O)C1CC(=O)N(c2ccc(OCc3c(F)cccc3Cl)cc2)C1 (stereo not drawn) | 5.01 µM [falling, partial curve] |
| Cc1ccc(C)c(CSc2nnc3[nH]c(=O)cc(-c4ccccc4)n23)c1 | 25.1 µM [falling, single point] |
| CCNc1c(N)c(=O)oc2ccccc12 | 1 µM [falling, full curve] |
| Cc1c(C(=O)N2CCCCC2)oc2ccc(S(=O)(=O)N3CC(C)CC(C)C3)cc12 (stereo not drawn) | 12.6 µM [falling, partial curve] |
| Cc1cccc(NC(=O)C2CCN(S(=O)(=O)c3ccc4c(c3)CCCN4C(=O)C3CCC3)CC2)c1 | 39.8 µM [falling, single point] |

| Structure (SMILES) | AC50 |
| --- | --- |
| Cc1cccc(C)c1-n1ncc(C(=O)N2CCN(c3ncccn3)CC2)c1C1CCN(C(=O)OC(C)(C)C)CC1 | 20 µM [falling, partial curve] |
| O=C(COc1ccc(F)cc1)Nc1nnc(SCc2cc(=O)n3ccccc3n2)s1 | 1 µM [falling, full curve] |
| N#C/C(C(=O)c1ccccc1)=C1/SC=C(N)N1c1ccccc1 | 25.1 µM [falling, partial curve] |
| O=C(Nc1nc2n(n1)C(c1ccccc1)C=C(c1ccc(Cl)cc1)N2)c1ccco1 (stereo not drawn) | 15.8 µM [falling, partial curve] |
| COc1cccc(Cn2c(SCc3ccc(C(=O)N4CCCCC4)cc3)nc3ccncc32)c1 | 25.1 µM [falling, single point] |
| Cc1cc(Cl)ccc1NC(=O)CN1C(=O)COc2ccc(S(=O)(=O)Nc3ccccc3)cc21 | 20 µM [falling, partial curve] |
| CCc1c(C)nc2[nH]nc(-c3ccccc3C)n2c1=O | 6.31 µM [falling, partial curve] |
| Cc1ccc(CN(Cc2ccco2)C(=O)COc2cccc(C)c2C)o1 | 31.6 µM [falling, single point] |
| Cc1ccc(-n2c(SCC(=O)OC(C)C)nnc2-c2ccncc2)cc1 | 2 µM [falling, full curve] |
| Cc1ccc2c(c1)N(C(=O)N1CCC(C(=O)NCCc3ccccc3)CC1)CC(C)O2 (stereo not drawn) | 6.31 µM [falling, partial curve] |
| CC(C)Oc1ccc(CNC(=O)c2ccc(NC(=O)N3CC(C)Sc4ccccc43)cc2)cc1 (stereo not drawn) | 10 µM [falling, partial curve] |
| CC1CCc2onc(C(=O)N3CCN(c4cccc(Cl)c4)CC3)c2C1 (stereo not drawn) | 3.98 µM [falling, partial curve] |
| Cc1cc(C)c(S(=O)(=O)NCC(c2ccco2)S(=O)(=O)c2cccs2)c(C)c1 (stereo not drawn) | 31.6 µM [falling, single point] |
| Cc1cc(Br)cc2c1N(Cc1ccccc1OC(C)C)C(=O)C2=O | 12.6 µM [falling, partial curve] |
| Cc1cccc(-c2noc(CN(C)S(=O)(=O)c3cc(Cl)ccc3Cl)n2)c1 | 10 µM [falling, partial curve] |
| Cc1ccc(OCCC(=O)OCC(=O)Nc2ccc(Cl)cn2)cc1 | 25.1 µM [falling, partial curve] |
| CCCCNc1c(C(=O)OCC)c(C)nc2c1cnn2CC | 31.6 µM [falling, partial curve] |
| COc1ccc(CCNC(=O)c2cc(=O)c3ccc(C)cc3o2)cc1OC | 39.8 µM [falling, single point] |
| CCCCCn1c(=O)[nH]c2cc(C(=O)NC(C)CC)ccc2c1=O (stereo not drawn) | 7.94 µM [falling, full curve] |
| CCOc1ccc(CNC(=O)c2ccc3c(c2)nc2n3CCCCC2)cc1 | 6.31 µM [falling, partial curve] |
| COc1ccc(C(=O)Nc2ccc3oc(-c4cccnc4)nc3c2)cc1OC | 12.6 µM [falling, partial curve] |
